Experimental data from patent US7807788.
Substitutions are numbered along the chain they refer to. These are yes or no findings as the source states them, for the method shown. Some binding calls cover weakened binding; strength is not graded here.

By UniProt entry, the sequences of proteins in these tests, tags left out. Where a name states a change or a piece, a line headed by the entry shows the natural chain unless it says otherwise.
UniProt P35225: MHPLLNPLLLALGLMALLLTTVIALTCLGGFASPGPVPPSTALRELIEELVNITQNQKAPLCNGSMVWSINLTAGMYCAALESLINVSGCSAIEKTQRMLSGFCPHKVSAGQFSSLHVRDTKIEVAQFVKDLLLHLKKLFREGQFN

B1: chimaeric 6A1 monoclonal antibody (antibody, human IgG1, V domains shown)
VH: EIQLQQSVAELVRPGASVRLSCTASGFYIKDTYMHWVIQRPEQGLEWIGTIDPANGNTKYVPKFQGKATITADTSSNTAYLRLSSLTSEDTAIYYCARSIYDDYHYDDYYAMDYWGQGTSVTVSS
VL: DVLMTQTPLSLPVSLGDQASISCRSSQNIVHINGNTYLEWYLQKPGQSPKLLIYKISDRFSGVPDRFSGSGSGTDFTLKISRVEAEDLGVYYCFQGSHVPWTFGGGTKLEIK
B2: humanised anti-IL-13 antibody L1+A1 (antibody, human IgG1, kappa, V domains shown)
VH: QVQLVQSGAEVKKPGSSVKVSCKASGFYIKDTYMHWVRQAPGQGLEWMGTIDPANGNTKYVPKFQGRVTITADESTSTAYMELSSLRSEDTAVYYCARSIYDDYHYDDYYAMDYWGQGTLVTVSS
VL: DIVMTQSPLSLPVTPGEPASISCRSSQNIVHINGNTYLEWYLQKPGQSPRLLIYKISDRFSGVPDRFSGSGSGTDFTLKISRVEADDVGIYYCFQGSHVPWTFGQGTKLEIKR
B3: humanised anti-IL-13 antibody L2+A1 (antibody, human IgG1, kappa, V domains shown)
VH: B2 VH
VL: B2 VL with I90V
B4: mouse monoclonal antibody 6A1 (antibody, mouse IgG1, V domains shown)
VH: B1 VH
VL: B1 VL

These binders were tested against native (PBMC derived) human IL-13 (human) (UniProt P35225) (assay: ELISA on Th2 cell supernatant).
In the case of B1, the binding is reported as “binds”.
For B2, the binding was “binds”.
B3 was tested, and the binding was “binds”.
For B4, the binding was “binds”.

Each binder was assayed against native (PBMC derived) human IL-13 (human) (UniProt P35225) (assay: sandwich ELISA: titrated supernatant of stimulated CD4+ Th2 cells as the source of native human IL-13, detected with the mAb).
For B1, the binding was “binds”.
For B2, the binding was “binds”.
In the case of B3, the binding is reported as “binds”.
For B4, the binding was “binds”.
